Values from PubChem BioAssay AID1224830 (NIAID, 2016)
This is one part, drawn at random, of about 18,000 reagents. In the full data, about 2,900 (16%) got an active call. 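Calls are made per well; low scores hint the gene aids the LPS response, high scores that it dampens it.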 A number with no mark means an inactive call. Repeated entries: four replicate wells of each siRNA pool.

Purpose: 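Genes whose knock-down alters the TNF-alpha reporter response to LPS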 (primary screen)
System: human THP-1 monocytic leukaemia cells, TNF dual-luciferase reporter clone, PMA-differentiated to macrophage-like cells
Reagents: siRNA pool against human genes, 50 nM
Time to read-out: LPS for 4 h, given about 3 days after siRNA transfection
Challenge: bacterial LPS (TLR4 ligand), 10 ng/ml
Detection: 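TNF firefly reporter luminescence divided by renilla, normalised to the plate median, then turned into a robust z-score for each replicate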
Scale: TNF reporter robust z-score: higher = stronger TNF reporter response to LPS
Hit rule: 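a well is active when its z-score exceeds 2.8 or falls below -1.5; control wells carry no call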

GSTA4 scored TNF reporter robust z-score -1.27.
GSTA4 scored TNF reporter robust z-score -0.27.
GSTA4 gave TNF reporter robust z-score -0.66.
Knock-down of GSTA4 resulted in: TNF reporter robust z-score -0.45.
Depletion of DNAJC21 resulted in: TNF reporter robust z-score 0.49.
With knock-down of DNAJC21 the results were TNF reporter robust z-score 1.83.
DNAJC21 scored TNF reporter robust z-score -0.25.
Silencing of DNAJC21 resulted in: TNF reporter robust z-score 2.
After knock-down of CRLF3, the screen gave TNF reporter robust z-score -1.24.
CRLF3 showed TNF reporter robust z-score -0.62.
Against CRLF3, the values are TNF reporter robust z-score -1.23.
After knock-down of CRLF3 the results were TNF reporter robust z-score -0.59.
Against NRXN2, the entry reads TNF reporter robust z-score 1.04.
With knock-down of NRXN2, the record shows TNF reporter robust z-score 1.1.
For NRXN2, the entry reads TNF reporter robust z-score 1.5.
NRXN2 scored TNF reporter robust z-score -0.95.
CDC16 gave TNF reporter robust z-score -0.1.
After knock-down of CDC16, the record shows TNF reporter robust z-score 0.07.
With knock-down of CDC16, the screen gave TNF reporter robust z-score 0.27.
CDC16 gave TNF reporter robust z-score 0.53.
For ULBP2 the deposit lists TNF reporter robust z-score -0.96.
After knock-down of ULBP2, the record shows TNF reporter robust z-score 0.53.
ULBP2 showed TNF reporter robust z-score 1.5.
Depletion of ULBP2 gave: TNF reporter robust z-score 1.91.
COX10 gave TNF reporter robust z-score -0.39.
Depletion of COX10 resulted in: TNF reporter robust z-score 0.2.
Against COX10 the deposit lists TNF reporter robust z-score 0.63.
COX10 scored TNF reporter robust z-score 1.18.
Against LYPD4, the entry reads TNF reporter robust z-score -0.73.
With knock-down of LYPD4, the screen gave TNF reporter robust z-score 0.58.
Depletion of LYPD4 resulted in: TNF reporter robust z-score 0.78.
For LYPD4, the values are TNF reporter robust z-score 1.84.
DLGAP1 scored TNF reporter robust z-score -0.16.
After knock-down of DLGAP1 the results were TNF reporter robust z-score 0.79.
After knock-down of DLGAP1, the screen gave TNF reporter robust z-score 0.41.
For DLGAP1, the values are TNF reporter robust z-score 1.27.
After knock-down of PRR11, the record shows TNF reporter robust z-score 0.5.
After knock-down of PRR11, the screen gave TNF reporter robust z-score 0.33.
With knock-down of PRR11 the results were TNF reporter robust z-score -0.26.
After knock-down of PRR11 the results were TNF reporter robust z-score -0.69.

Quoted from above, 6 entries:
LYPD4 | TNF reporter robust z-score: 1.84
DLGAP1 | TNF reporter robust z-score: -0.16
DLGAP1 | TNF reporter robust z-score: 0.79
DLGAP1 | TNF reporter robust z-score: 0.41
DLGAP1 | TNF reporter robust z-score: 1.27
PRR11 | TNF reporter robust z-score: 0.5

The results go on.
Against BHMT, the values are TNF reporter robust z-score 0.58.
Against BHMT the deposit lists TNF reporter robust z-score 0.63.
BHMT showed TNF reporter robust z-score 2.33.
After knock-down of BHMT, the screen gave TNF reporter robust z-score 0.69.
CHRDL2 scored TNF reporter robust z-score 0.
After knock-down of CHRDL2 the results were TNF reporter robust z-score 1.2.
CHRDL2 showed TNF reporter robust z-score 0.34.
CHRDL2 showed TNF reporter robust z-score 0.45.
After knock-down of TSSK3, the screen gave TNF reporter robust z-score -0.07.
Silencing of TSSK3 resulted in: TNF reporter robust z-score -0.66.
With knock-down of TSSK3, the screen gave TNF reporter robust z-score -0.42.
Against TSSK3, the entry reads TNF reporter robust z-score -0.29.
SCRG1 showed TNF reporter robust z-score -2.09 (active).
Against SCRG1 the deposit lists TNF reporter robust z-score -1.98 (active).
Silencing of SCRG1 resulted in: TNF reporter robust z-score -2.12 (active).
For SCRG1 the deposit lists TNF reporter robust z-score -1.55 (active).
ACSS1 scored TNF reporter robust z-score -0.32.
Against ACSS1 the deposit lists TNF reporter robust z-score 1.09.
Depletion of ACSS1 came out at: TNF reporter robust z-score -0.22.
Knock-down of ACSS1 resulted in: TNF reporter robust z-score 0.39.
